Common to all, as to assay: co-IP; membrane fraction of co-transfected tsA201 cells solubilised in 1 % Triton X-100, 150 mM NaCl, 50 mM Tris-HCl pH 8; 200-400 ug protein with 4 ug antibody (anti-GFP, anti-GluA1-NT or anti-GluA2) overnight at 4 C, Protein-A sepharose, three washes, Western blot
(In western blotting, separated proteins are transferred to a membrane and probed.)

By UniProt entry, the sequences of proteins in these tests, tags left out. Where a name states a change or a piece, a line headed by the entry shows the natural chain unless it says otherwise. Chains listed by the source or under a name are the forms on record and can include a tag or linker. Residues count along the entry.
GluA1 (P19490, residues 19-907): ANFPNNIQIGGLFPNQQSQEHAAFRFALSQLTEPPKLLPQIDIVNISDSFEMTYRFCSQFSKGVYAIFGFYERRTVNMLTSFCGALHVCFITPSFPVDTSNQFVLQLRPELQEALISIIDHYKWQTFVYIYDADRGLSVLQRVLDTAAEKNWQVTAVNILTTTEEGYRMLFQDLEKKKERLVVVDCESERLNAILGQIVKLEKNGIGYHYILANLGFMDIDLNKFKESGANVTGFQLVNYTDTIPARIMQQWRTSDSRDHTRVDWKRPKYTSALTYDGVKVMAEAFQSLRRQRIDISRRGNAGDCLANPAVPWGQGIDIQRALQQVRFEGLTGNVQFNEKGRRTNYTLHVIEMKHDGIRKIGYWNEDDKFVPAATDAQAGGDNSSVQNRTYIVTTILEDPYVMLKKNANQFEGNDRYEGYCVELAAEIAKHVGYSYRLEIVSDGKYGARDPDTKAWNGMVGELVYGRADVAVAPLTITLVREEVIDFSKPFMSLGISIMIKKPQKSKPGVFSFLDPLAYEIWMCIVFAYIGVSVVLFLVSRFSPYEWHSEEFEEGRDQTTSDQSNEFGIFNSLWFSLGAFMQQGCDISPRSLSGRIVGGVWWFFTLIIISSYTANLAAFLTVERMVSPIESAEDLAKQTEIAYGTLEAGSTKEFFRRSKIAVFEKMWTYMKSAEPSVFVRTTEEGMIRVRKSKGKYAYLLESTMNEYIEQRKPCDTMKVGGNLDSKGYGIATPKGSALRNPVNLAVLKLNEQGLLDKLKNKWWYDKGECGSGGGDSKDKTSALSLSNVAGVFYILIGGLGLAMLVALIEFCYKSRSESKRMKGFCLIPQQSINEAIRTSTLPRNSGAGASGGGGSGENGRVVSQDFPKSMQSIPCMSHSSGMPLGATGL
GluA1(C585,811S) (P19490, form named): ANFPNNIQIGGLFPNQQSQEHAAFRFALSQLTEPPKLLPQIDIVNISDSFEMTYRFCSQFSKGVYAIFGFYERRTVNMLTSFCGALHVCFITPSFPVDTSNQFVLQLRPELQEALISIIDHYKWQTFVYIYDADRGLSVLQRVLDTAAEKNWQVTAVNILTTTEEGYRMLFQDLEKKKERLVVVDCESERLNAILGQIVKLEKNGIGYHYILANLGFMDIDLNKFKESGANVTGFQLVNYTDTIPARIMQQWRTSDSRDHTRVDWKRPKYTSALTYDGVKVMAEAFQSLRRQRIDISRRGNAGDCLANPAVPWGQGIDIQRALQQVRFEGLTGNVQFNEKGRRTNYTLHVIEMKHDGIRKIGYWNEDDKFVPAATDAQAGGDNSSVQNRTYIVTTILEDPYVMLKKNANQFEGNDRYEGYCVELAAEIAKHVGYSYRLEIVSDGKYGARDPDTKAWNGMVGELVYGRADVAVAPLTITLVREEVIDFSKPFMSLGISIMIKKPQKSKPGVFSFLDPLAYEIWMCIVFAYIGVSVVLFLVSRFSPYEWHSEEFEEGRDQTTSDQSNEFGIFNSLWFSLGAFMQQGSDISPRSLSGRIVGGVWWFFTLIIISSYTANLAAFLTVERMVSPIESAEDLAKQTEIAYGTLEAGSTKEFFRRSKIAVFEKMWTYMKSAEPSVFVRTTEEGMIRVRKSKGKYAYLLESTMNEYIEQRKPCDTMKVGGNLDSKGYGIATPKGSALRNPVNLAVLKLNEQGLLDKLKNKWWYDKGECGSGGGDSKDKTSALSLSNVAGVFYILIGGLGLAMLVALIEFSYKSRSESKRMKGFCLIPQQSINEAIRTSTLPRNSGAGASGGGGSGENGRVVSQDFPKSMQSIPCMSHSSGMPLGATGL
GluA1(C585S) (P19490, form named): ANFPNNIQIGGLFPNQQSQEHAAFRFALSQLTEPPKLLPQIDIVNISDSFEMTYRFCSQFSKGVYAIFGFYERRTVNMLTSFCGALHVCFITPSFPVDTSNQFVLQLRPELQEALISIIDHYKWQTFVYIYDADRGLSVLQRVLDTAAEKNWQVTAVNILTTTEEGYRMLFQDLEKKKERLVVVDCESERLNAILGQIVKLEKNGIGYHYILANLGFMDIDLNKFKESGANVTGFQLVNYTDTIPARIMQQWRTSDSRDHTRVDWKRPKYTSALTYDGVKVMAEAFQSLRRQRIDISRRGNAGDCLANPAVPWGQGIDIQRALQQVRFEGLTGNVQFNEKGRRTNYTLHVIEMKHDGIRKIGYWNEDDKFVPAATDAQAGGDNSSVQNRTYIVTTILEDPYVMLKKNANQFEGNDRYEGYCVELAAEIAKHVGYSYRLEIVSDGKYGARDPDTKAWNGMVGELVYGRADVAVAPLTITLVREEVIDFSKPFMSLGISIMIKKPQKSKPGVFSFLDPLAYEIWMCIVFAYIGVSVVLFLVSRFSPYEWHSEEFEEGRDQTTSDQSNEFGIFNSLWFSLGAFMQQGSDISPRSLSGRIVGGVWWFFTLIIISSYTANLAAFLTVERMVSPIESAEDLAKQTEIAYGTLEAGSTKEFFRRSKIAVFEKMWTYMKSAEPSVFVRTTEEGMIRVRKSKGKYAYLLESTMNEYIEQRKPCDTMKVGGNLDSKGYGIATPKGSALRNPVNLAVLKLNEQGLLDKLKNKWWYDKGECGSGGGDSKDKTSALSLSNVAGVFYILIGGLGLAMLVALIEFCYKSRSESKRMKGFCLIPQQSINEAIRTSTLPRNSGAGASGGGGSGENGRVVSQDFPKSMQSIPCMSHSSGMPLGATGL
GluA1(C811S) (P19490, form named): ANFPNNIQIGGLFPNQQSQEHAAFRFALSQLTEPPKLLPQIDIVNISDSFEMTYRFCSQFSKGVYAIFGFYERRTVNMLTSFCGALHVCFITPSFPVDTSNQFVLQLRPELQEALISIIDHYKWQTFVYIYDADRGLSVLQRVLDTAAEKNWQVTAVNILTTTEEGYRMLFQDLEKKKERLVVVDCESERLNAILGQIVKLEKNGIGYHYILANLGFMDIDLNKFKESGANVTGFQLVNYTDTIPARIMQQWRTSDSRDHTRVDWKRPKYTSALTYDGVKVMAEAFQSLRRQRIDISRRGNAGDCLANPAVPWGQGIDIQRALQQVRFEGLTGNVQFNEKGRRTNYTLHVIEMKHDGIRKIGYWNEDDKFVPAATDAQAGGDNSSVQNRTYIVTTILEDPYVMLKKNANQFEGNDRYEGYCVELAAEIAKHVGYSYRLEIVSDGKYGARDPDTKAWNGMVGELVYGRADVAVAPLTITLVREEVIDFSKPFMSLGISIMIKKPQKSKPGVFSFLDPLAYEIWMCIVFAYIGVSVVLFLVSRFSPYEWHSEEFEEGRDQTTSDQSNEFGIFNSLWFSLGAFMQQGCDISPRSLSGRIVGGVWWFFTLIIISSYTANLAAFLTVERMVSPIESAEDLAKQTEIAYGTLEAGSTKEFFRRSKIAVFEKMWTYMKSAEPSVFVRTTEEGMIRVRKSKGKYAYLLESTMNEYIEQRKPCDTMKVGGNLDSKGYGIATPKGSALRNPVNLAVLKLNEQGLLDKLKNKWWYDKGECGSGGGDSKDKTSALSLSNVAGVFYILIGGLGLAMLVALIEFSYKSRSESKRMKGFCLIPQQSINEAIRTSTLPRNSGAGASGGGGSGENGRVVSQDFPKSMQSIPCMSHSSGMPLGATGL
UniProt P19491, residues 22-883: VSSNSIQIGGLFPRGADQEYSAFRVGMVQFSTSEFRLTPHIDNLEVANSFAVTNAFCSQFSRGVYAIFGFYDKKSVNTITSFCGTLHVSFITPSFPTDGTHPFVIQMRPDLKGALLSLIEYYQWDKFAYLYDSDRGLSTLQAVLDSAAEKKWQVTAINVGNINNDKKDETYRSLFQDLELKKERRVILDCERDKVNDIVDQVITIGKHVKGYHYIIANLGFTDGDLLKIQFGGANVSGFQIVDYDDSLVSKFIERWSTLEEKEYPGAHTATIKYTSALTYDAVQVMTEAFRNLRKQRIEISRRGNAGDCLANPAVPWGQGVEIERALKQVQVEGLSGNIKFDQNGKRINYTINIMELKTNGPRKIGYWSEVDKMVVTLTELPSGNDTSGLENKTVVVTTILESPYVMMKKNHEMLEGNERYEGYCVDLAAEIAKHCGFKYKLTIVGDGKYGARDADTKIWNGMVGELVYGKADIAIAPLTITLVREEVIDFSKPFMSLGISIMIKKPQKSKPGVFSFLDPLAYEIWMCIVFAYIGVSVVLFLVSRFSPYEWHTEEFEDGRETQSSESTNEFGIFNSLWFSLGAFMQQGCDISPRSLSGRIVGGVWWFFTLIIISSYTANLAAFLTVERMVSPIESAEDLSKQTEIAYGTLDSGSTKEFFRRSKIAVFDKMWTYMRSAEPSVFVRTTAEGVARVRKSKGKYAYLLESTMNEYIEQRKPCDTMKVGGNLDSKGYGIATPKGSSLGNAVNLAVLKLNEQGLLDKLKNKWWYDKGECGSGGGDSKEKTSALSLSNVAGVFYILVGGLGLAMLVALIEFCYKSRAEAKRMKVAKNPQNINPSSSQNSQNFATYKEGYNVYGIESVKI

The target in experiment [1] is T1, CPT1C-GFP (carnitine palmitoyltransferase 1C, C-terminally tagged with EGFP) (rat) (UniProt F1LN46).
T1 sequence: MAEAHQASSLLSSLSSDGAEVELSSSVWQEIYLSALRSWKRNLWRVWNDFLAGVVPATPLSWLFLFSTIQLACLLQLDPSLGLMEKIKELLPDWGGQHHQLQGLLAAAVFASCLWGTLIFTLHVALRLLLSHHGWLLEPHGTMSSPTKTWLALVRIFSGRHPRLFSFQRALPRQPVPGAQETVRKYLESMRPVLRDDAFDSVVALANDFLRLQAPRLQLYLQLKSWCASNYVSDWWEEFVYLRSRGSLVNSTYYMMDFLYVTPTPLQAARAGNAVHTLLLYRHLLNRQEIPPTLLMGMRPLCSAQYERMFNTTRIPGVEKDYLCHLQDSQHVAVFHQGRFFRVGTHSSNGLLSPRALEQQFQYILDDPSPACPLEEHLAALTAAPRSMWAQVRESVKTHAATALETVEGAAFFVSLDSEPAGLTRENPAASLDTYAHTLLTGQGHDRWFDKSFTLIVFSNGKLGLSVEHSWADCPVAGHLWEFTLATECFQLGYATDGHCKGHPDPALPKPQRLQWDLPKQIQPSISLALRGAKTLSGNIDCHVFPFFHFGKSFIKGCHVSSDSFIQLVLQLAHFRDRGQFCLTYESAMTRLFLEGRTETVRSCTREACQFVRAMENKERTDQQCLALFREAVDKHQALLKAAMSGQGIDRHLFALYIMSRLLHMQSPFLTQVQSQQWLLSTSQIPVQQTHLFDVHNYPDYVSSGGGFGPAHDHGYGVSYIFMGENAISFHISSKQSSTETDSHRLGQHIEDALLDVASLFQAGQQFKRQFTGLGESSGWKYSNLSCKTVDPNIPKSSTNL

Experiment [2] addresses GluA1 (rat) (UniProt P19490).
In experiment [3] the target is GluA2 (rat) (UniProt P19491).

These are yes or no findings as the source states them, for the method shown. In cells and extracts the contact can be indirect. Some results given as binding are weak or reduced against the parent protein; the word gives no strength. Where a sequence is shown, tags or fusion partners need not be part of it.

Take “GluA1 (from UniProt P19490 19-907) (receptor)”: the binding entry in experiment [1] was “binds”.

“GluA1(C585,811S) (from UniProt P19490 19-907) (receptor)”: in experiment [1], the binding result is recorded as “binds”.

Take “GluA1(C585S) (from UniProt P19490 19-907) (receptor)”: the binding result in experiment [1] is “binds”.

“GluA1(C811S) (from UniProt P19490 19-907) (receptor)”: in experiment [1], the binding result is “binds”.

Regarding “GluA2 (from UniProt P19491 22-883) (receptor)”, the binding result in experiment [1] is given as “binds”.

B1: CPT1C-GFP (carnitine palmitoyltransferase 1C, C-terminally tagged with EGFP) (protein, UniProt F1LN46 1-801)
chain: T1 sequence
B1: the binding entry in experiment [2] and in experiment [3] was “binds” throughout.

The record behind these values is article PMC4313699.
